Results deposited as PubChem BioAssay AID1224826 (NIAID, 2016)
Test: 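Genes that change LPS-induced Tnf promoter activity in mouse macrophages when knocked down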 (primary screen). Cell system: RAW264.7 G9 macrophages from mouse bearing reporters for p65 (GFP) and the Tnf promoter (mCherry). Reagent: siRNA pool against mouse genes, 100 nM. Time to read-out: 16 h of LPS stimulation, after 2 days of siRNA transfection. Challenge: bacterial lipopolysaccharide (Salmonella minnesota R595), 10 ng/ml. Read-out: 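Imaged Tnf reporter mCherry in nuclei, minus background, normalised per plate to the median and expressed as robust z-scores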. Reading the numbers: Tnf reporter robust z-score: higher = stronger Tnf promoter reporter signal after LPS; Tnf reporter intensity: higher = stronger Tnf promoter reporter signal. Active means: 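Called active when robust z-score is at most -1.3, matching the median of the Tlr4 knock-down control, or over 3; control wells and wells with under 50 cells never active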. Calls: active = Tnf reporter clearly lowered or raised; inactive = no clear change in Tnf reporter.
The deposit covers about 17,000 reagents; shown is a random part of them. About 1,110 of them (6.6%) were called active. 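Active means lowered or raised reporter signal; replicate intensities are raw and not normalised per plate.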 Entries without a mark were called inactive. The numbers tell different reagents against one gene apart.

target	reagent no.	Tnf reporter robust z-score	fewer than 50 cells in well	Tnf reporter intensity, replicate 1	Tnf reporter intensity, replicate 2
Plau	1	-0.31	enough cells in well	197	192
Abhd12	1	1.73	enough cells in well	235	274
Tmem138	1		fewer than 50 cells per well; well left out of calls	144	69.6
Dhx32	1	0.27	enough cells in well	281	115
Zfp157	1	3.35 (active)	enough cells in well	367	154
Gh	1	0.53	enough cells in well	242	194
Ltb4r1	1	0.05	enough cells in well	245	254
Nle1	1	0.08	enough cells in well	234	281
Kif18b	1	0.79	enough cells in well	218	72.3
Pycr2	1	-0.7	enough cells in well	242	152
Kcnk13	1	1.02	enough cells in well	285	229
Lpar1	1	0.69	enough cells in well	240	408
Poglut3	1	-1.07	enough cells in well	115	41.5
Tgfbr2	1	0.64	enough cells in well	198	174
Tph1	1		fewer than 50 cells per well; well left out of calls	56.9	69.8
Stom	1	-1.04	enough cells in well	187	71.7
Aqp6	1	2.27	enough cells in well	254	348
Twist1	1	-1.06	enough cells in well	142	154
Bag5	1	-0.09	enough cells in well	136	163
Zfp523	1	0.62	enough cells in well	284	271
Mcub	1	-1.73 (active)	enough cells in well	89.9	70.3
Olfr899	1	0.73	enough cells in well	146	117
Smcp	1	-0.93	enough cells in well	111	116
Trmu	1	0.08	enough cells in well	134	81.6
Shmt2	1	0.37	enough cells in well	310	245
Slc25a46	1	0.39	enough cells in well	203	112
Sdc4	1	0.44	enough cells in well	334	235
Tssk1	1		fewer than 50 cells per well; well left out of calls	223	165
Frmd5	1		fewer than 50 cells per well; well left out of calls	142	28.7
Skint2	1	-0.54	enough cells in well	142	124
Gpd1	1	-0.24	enough cells in well	191	198
Capn9	1	-0.38	enough cells in well	109	201
Dbpht2	1	-0.81	enough cells in well	145	111
Plekha2	1	-0.6	enough cells in well	175	98.3
Slc34a1	1		fewer than 50 cells per well; well left out of calls	112	0
Rorc	1	-1.24	enough cells in well	174	124
Nrg3	1	1.3	enough cells in well	282	232
Arf4	1	-1.04	enough cells in well	106	114
Atp6v1g1	1	0.47	enough cells in well	206	183
Or52k2	1		fewer than 50 cells per well; well left out of calls	185	124
Riok1	1	1.19	enough cells in well	260	239
Gpr146	1	-0.23	enough cells in well	175	314
Gpr146	2		fewer than 50 cells per well; well left out of calls	59	71.8
Or9s27	1	0.04	enough cells in well	183	122
Zfp933	1	1.66	enough cells in well	268	252
Xpnpep2	1	0.04	enough cells in well	188	286
Arl8b	1	0.15	enough cells in well	172	180
Nf2	1	1.05	enough cells in well	382	257
Taar6	1	-0.2	enough cells in well	208	261
Sdc2	1	-0.34	enough cells in well	129	97.1
Rara	1	-0.82	enough cells in well	224	148
Myo10	1	0.83	enough cells in well	327	271
H2-Q5	1	-0.01	enough cells in well	287	135
Gnl3l	1	0.26	enough cells in well	231	219
Zfp296	1	1.52	enough cells in well	193	183
Clec4n	1	-1.22	enough cells in well	92.4	110
Prelid1	1	-0.76	enough cells in well	155	61.8
Lyrm1	1		fewer than 50 cells per well; well left out of calls	152	34
